Source: paper PMC9815656
No constants are given. Whether binding was seen depends on the method and setting. Binding seen in cells or lysates may run through a third protein. A yes stands for co-enrichment or nearness to the bait. Other partners may have been found. A no says only that the protein was not detected with the bait.

How the values were obtained:
[1] = target: CRMPA-TurboID (TGGT1_261080, C-terminal TurboID) (Toxoplasma gondii (RH strain)); assay: proximity labelling; TurboID at the C-terminus of CRMPA or CRMPB; extracellular tachyzoites labelled with biotin 30 min at 37°C; RIPA lysate, streptavidin beads, LC-MS/MS; compared with wild-type (DiCre) tachyzoites; no rapamycin
[2] = target: CRMPB-TurboID (TGGT1_292020, C-terminal TurboID) (Toxoplasma gondii (RH strain)); assay: as above

B1: MIC8 (protein, UniProt Q9BIM7 19-684)
chain: SFLKEMDSIFVSAIRQNVQHTHSALLAKLKEPPDPDDENSWLCRISKKYDACGSREYSDKGLKGTYCPEDFCCSKTACFYGSCGSWCHDNWALCSSSIIYHDEYSYGKCNCKRFQENCDVNAICVHANREDGGAYCQCKEGYWGDGKSCKIDFCQLQPCGAGTCTRTDEGYKCDCPETHKLIVVEDKETCKAKPDFCAEEPCGPPSMVENCVNTDDSYECVCKQGYEVRNGRCEEIDLCADKPCGPDEGVHECVTERQPKLRYRCTCKAGFDLTTLPDGVSQKCLKNFCYEEPCGTRDLVESCKSKAYGYSCLCAAGAMVQVINGKEKCIKADLCRNDPCGPETAVIQCYSHGTSYRCLCKAGYTEVFVNGKSSCQKGDPCTLNMCGGNEAVQECTTDGTAYGCTCKPGYSIAIKHGQKFCNPEEECASHCGSAAAVKSCEILDSGGYQCTCNPGYVMRYSDYVKGCVEGNQCSLNPCGEQEAVQRCIPEGDTYDCECNPGFVKRVLPDGNFICADPASCVGNPCGSSDAVDACIAGTSTYTCRCKDGYTPQSIGSKLQCLPESTDQTDFDSKHKPEDNKGRYSKGTIALVVVGCVALLGIIAGGISYARNRGGERDDEDLAPPPRSTRERRLSSMGEGFENASWASSVSMIPSAPAPPPSGGIWS
binding [1]: no binding
binding [2]: no binding
